Test results: the supplement of paper PMC12873370
Values joined by “and” are separate entries in the source; they are usually repeats but may differ in a detail not shown here. Equal entries are not always repeated. The list shows a part of the results. Repeats are few or missing, and single values can be far off.

What was measured:
[1] = tested on: MEPP (mouse ovarian epithelium Trp53/Pten KO); test: cell viability relative to untreated (fraction); higher = less growth inhibition; details: 5 µM; 3 days
[2] = tested on: PREPP (mouse prostate epithelium Trp53/Pten KO); test: as above; details: 5 µM; 3 days

CC(C)(CO)C(O)C(=O)NCCCO (stereo not drawn)
cell viability [1]: 0.89
cell viability [2]: 1.07

CCN(CC)CCOC(=O)c1ccc(N)cc1
cell viability [1]: 0.72
cell viability [2]: 1.02

C[C@H](Cc1cc2c(c(C(N)=O)c1)N(CCCO)CC2)NCCOc1ccccc1OCC(F)(F)F
cell viability [1]: 1.21
cell viability [2]: 0.97

NC(=O)c1ccccc1O
cell viability [1]: 1.22
cell viability [2]: 0.977

Nc1nc(=O)c2c([nH]1)NCC(CNc1ccc(C(=O)N[C@@H](CCC(=O)O)C(=O)O)cc1)N2C=O (stereo partly drawn)
cell viability [1]: 1.05
cell viability [2]: 0.942

C[C@H](CCC(=O)O)[C@H]1CC[C@H]2[C@@H]3C(=O)C[C@@H]4CC(=O)CC[C@]4(C)[C@H]3CC(=O)[C@]12C
cell viability [1]: 0.9
cell viability [2]: 0.962

NC(=O)c1ccc([N+](=O)[O-])cc1Cl
cell viability [1]: 0.838
cell viability [2]: 0.905

COCC1=C(C(=O)OC(C)OC(=O)OC(C)C)N2C(=O)[C@@H](NC(=O)/C(=N\OC)c3csc(N)n3)[C@H]2SC1 (stereo partly drawn)
cell viability [1]: 0.844
cell viability [2]: 0.974

CC[C@]1(O)C[C@@H]2CN(CCc3c([nH]c4ccccc34)[C@@](C(=O)OC)(c3cc4c(cc3OC)N(C)[C@H]3[C@@](O)(C(=O)OC)[C@H](OC(C)=O)[C@]5(CC)C=CCN6CC[C@]43[C@@H]65)C2)C1
cell viability [1]: 0.323 and 0.589
cell viability [2]: 0.707 and 0.59

NCC[C@H](O)C(=O)N[C@@H]1C[C@H](N)[C@@H](O[C@H]2O[C@H](CN)[C@@H](O)[C@H](O)[C@H]2O)[C@H](O)[C@H]1O[C@H]1O[C@H](CO)[C@@H](O)[C@H](N)[C@H]1O
cell viability [1]: 1.18
cell viability [2]: 1.07

COc1cc(/C=C\C(=O)O)cc(OC)c1O
cell viability [1]: 0.87
cell viability [2]: 1.09

N[C@@H](CS)C(=O)O
cell viability [1]: 1.09
cell viability [2]: 1.02

O[C@H]1[C@H](O)[C@@H](O)[C@H](O)[C@@H](O)[C@H]1O
cell viability [1]: 0.799
cell viability [2]: 0.913

O=C(O)c1cc(=O)c2cccc(O)c2[nH]1
cell viability [1]: 0.843
cell viability [2]: 0.837

Cc1c(C(N)=O)cc([N+](=O)[O-])cc1[N+](=O)[O-]
cell viability [1]: 1.15
cell viability [2]: 0.924

OC[C@@H](O)[C@@H](O)[C@H](O)[C@@H](O)CO
cell viability [1]: 1
cell viability [2]: 0.954

Clc1ccc2c(c1)CCc1cccnc1C2=C1CCNCC1
cell viability [1]: 1.16
cell viability [2]: 0.827

C/C1=C\CCC2=C[C@@H](OC2=O)c2c(C)coc2C1
cell viability [1]: 1.03
cell viability [2]: 1.04

CO[C@H]1/C=C/O[C@@]2(C)Oc3c(C)c(O)c4c(O)c(c5c(nc6cc(C)ccn65)c4c3C2=O)NC(=O)/C(C)=C\C=C\[C@H](C)[C@H](O)[C@@H](C)[C@@H](O)[C@@H](C)[C@H](OC(C)=O)[C@@H]1C
cell viability [1]: 1.21
cell viability [2]: 0.836

OC[C@H]1O[C@@H](O[C@@H]2OC=C[C@H]3[C@H](O)[C@@H]4O[C@]4(CO)[C@@H]23)[C@H](O)[C@@H](O)[C@@H]1O
cell viability [1]: 1.21
cell viability [2]: 0.994

NC[C@H]1O[C@H](O[C@H]2[C@H](O[C@@H]3O[C@H](CO)[C@@H](O)[C@H]3O)[C@@H](O)[C@H](N)C[C@@H]2N)[C@H](N)[C@@H](O)[C@@H]1O
cell viability [1]: 0.944
cell viability [2]: 0.822

O=C(O)c1cc(=O)cc(C(=O)O)[nH]1
cell viability [1]: 0.974
cell viability [2]: 1.05

CC[C@H](C)C(=O)O[C@H]1C[C@H](O)C=C2C=C[C@H](C)[C@H](CC[C@@H](O)C[C@@H](O)CC(=O)O)[C@H]21
cell viability [1]: 0.981 and 1.02
cell viability [2]: 0.905 and 0.981

CO/N=C(\C(=O)N[C@@H]1C(=O)N2C(C(=O)O)=C(COC(C)=O)CS[C@H]12)c1csc(N)n1
cell viability [1]: 1.01
cell viability [2]: 0.842

Nc1ncnc2c1ncn2C1OC(COP(=O)(O)O)C(O)C1O (stereo not drawn)
cell viability [1]: 0.958
cell viability [2]: 1.13

CCc1c2c(nc3ccc(O)cc13)-c1cc3c(c(=O)n1C2)COC(=O)[C@]3(O)CC
cell viability [1]: 0.636
cell viability [2]: 0.717

COc1cc2ccc(=O)oc2c(O)c1O
cell viability [1]: 1
cell viability [2]: 1.31

NC(N)=NCCCC[C@H](N)C(=O)O
cell viability [1]: 1.17 and 1.07
cell viability [2]: 1.07 and 0.867

COc1cc(O)cc(OC)c1
cell viability [1]: 0.966
cell viability [2]: 1.09

CC1(C)S[C@@H]2[C@H](NC(=O)COc3ccccc3)C(=O)N2[C@H]1C(=O)O
cell viability [1]: 0.871
cell viability [2]: 1.16

O=C1OC(CN2CCOCC2)CN1/N=C/c1ccc([N+](=O)[O-])o1 (stereo not drawn)
cell viability [1]: 1.11
cell viability [2]: 0.667

CC(=O)Nc1ncc([N+](=O)[O-])s1
cell viability [1]: 1.05
cell viability [2]: 0.86

NCCCCN
cell viability [1]: 0.85 and 1.48
cell viability [2]: 1.05 and 1.09

OC[C@H]1O[C@H](OCC2O[C@@H](O)[C@H](O)[C@@H](O)[C@@H]2O)[C@H](O)[C@@H](O)[C@H]1O (stereo partly drawn)
cell viability [1]: 0.776
cell viability [2]: 0.913

C[C@@H]1O[C@@H](Oc2c(-c3ccc(O)c(O)c3)oc3cc(O)cc(O)c3c2=O)[C@H](O)[C@H](O)[C@H]1O
cell viability [1]: 0.85
cell viability [2]: 1.65

CC[C@H](C)C(=O)O[C@H]1C[C@@H](C)C=C2C=C[C@H](C)[C@H](CC[C@@H]3C[C@@H](O)CC(=O)O3)[C@H]21
cell viability [1]: 0.917
cell viability [2]: 0.64

C=C[C@](C)(O)CC[C@@H]1[C@@]2(C)CCCC(C)(C)[C@@H]2CC[C@@]1(C)O
cell viability [1]: 0.852
cell viability [2]: 0.98

N[C@@H]1CONC1=O
cell viability [1]: 1.31
cell viability [2]: 0.913

Cc1cc(SCc2sc(-c3ccc(C(F)(F)F)cc3)nc2C)ccc1OCC(=O)O
cell viability [1]: 1.05
cell viability [2]: 0.961

CO/N=C(\C(=O)N[C@@H]1C(=O)N2C(C(=O)[O-])=C(C[N+]3(C)CCCC3)CS[C@H]12)c1csc(N)n1
cell viability [1]: 0.784
cell viability [2]: 0.967

Nc1ccc(S(=O)(=O)Nc2nccs2)cc1
cell viability [1]: 0.929
cell viability [2]: 1.01

O=C(O)c1ncccc1O
cell viability [1]: 0.94
cell viability [2]: 1.1

CNCC(=O)O
cell viability [1]: 0.813
cell viability [2]: 0.849

CC1(C)S[C@@H]2[C@H](NC(=O)C(C(=O)O)c3ccccc3)C(=O)N2[C@H]1C(=O)O (stereo partly drawn)
cell viability [1]: 1.03
cell viability [2]: 0.87

CC(C)=CC(=O)O
cell viability [1]: 0.937
cell viability [2]: 1

COc1ccc(C=CC(=O)O)cc1OC
cell viability [1]: 0.94
cell viability [2]: 1.1

NCCCCCC(=O)O
cell viability [1]: 1.05
cell viability [2]: 0.936

O=C(O)/C=C/CCCCCCCO
cell viability [1]: 1.15
cell viability [2]: 0.773

NCCS(=O)(=O)O
cell viability [1]: 1.2
cell viability [2]: 0.942

CCC(C)(C)C(=O)O[C@H]1C[C@@H](C)C=C2C=C[C@H](C)[C@H](CC[C@@H]3C[C@@H](O)CC(=O)O3)[C@H]21
cell viability [1]: 1
cell viability [2]: 0.714

COc1cc(C(C)=O)ccc1O
cell viability [1]: 1.15
cell viability [2]: 0.96

O=C1c2ccccc2C(=O)c2c1ccc(O)c2O
cell viability [1]: 1.05
cell viability [2]: 0.937

Nc1ccc(C(=O)NCC(=O)O)cc1
cell viability [1]: 1.07
cell viability [2]: 0.91

CC1(C)[C@@H](OC(=O)CCC(=O)O)CC[C@]2(C)[C@H]3C(=O)C=C4[C@@H]5C[C@@](C)(C(=O)O)CC[C@]5(C)CC[C@@]4(C)[C@]3(C)CC[C@@H]12
cell viability [1]: 1.29
cell viability [2]: 0.948

C1CCN2C[C@@H]3C[C@@H](CN4CCCC[C@@H]34)[C@H]2C1
cell viability [1]: 0.907
cell viability [2]: 1

C[C@H]1[C@H](C)CC[C@]2(C(=O)O[C@@H]3O[C@H](CO[C@@H]4O[C@H](CO)[C@@H](O[C@@H]5O[C@@H](C)[C@H](O)[C@@H](O)[C@H]5O)[C@H](O)[C@H]4O)[C@@H](O)[C@H](O)[C@H]3O)CC[C@]3(C)C(=CC[C@@H]4[C@@]5(C)C[C@@H](O)[C@H](O)[C@@](C)(CO)[C@@H]5[C@H](O)C[C@]43C)[C@H]12
cell viability [1]: 1.25
cell viability [2]: 0.948

O=C(O)CC(=O)C(=O)O
cell viability [1]: 1.18
cell viability [2]: 1.06

N=C(N)NCCN1CCCCCCC1
cell viability [1]: 1.12
cell viability [2]: 1.04

CC1=C(/C=C/C(C)=C/C=C/C(C)=C\C(=O)O)C(C)(C)CCC1
cell viability [1]: 1.03
cell viability [2]: 1.06

NC(=O)c1ccc[n+]([C@@H]2O[C@H](COP(=O)([O-])OP(=O)(O)OC[C@H]3O[C@@H](n4cnc5c(N)ncnc54)[C@H](O)[C@@H]3O)[C@@H](O)[C@H]2O)c1
cell viability [1]: 1.07
cell viability [2]: 1.16

C[n+]1cc2c3c(ccc2c2ccc4cc5c(cc4c21)OCO5)OCO3
cell viability [1]: 0.31
cell viability [2]: 0.235

O=c1c(-c2ccc(O)cc2)coc2cc(O)cc(O)c12
cell viability [1]: 1.1
cell viability [2]: 0.81

CC1(C)S[C@@H]2[C@H](NC(=O)[C@H](N)c3ccc(O)cc3)C(=O)N2[C@H]1C(=O)O
cell viability [1]: 1.06 and 0.798
cell viability [2]: 0.839 and 1.01

COc1c(C)c2c(c(O)c1C/C=C(\C)CCC(=O)O)C(=O)OC2
cell viability [1]: 0.417
cell viability [2]: 0.598

O=C(O)c1ccc(O)c(O)c1
cell viability [1]: 0.953
cell viability [2]: 0.915

C[C@]12C=CC(=O)C=C1CC[C@@H]1[C@@H]2[C@@H](O)C[C@@]2(C)[C@H]1CC[C@]2(O)C(=O)CO
cell viability [1]: 0.889
cell viability [2]: 0.825

NC(=O)C[C@H](N)C(=O)O
cell viability [1]: 0.905
cell viability [2]: 0.99

Cc1cn([C@H]2C[C@H](O)[C@@H](CO)O2)c(=O)[nH]c1=O
cell viability [1]: 1.02
cell viability [2]: 0.942

CN(Cc1ccc(C(C)(C)C)cc1)Cc1cccc2ccccc12
cell viability [1]: 1.1
cell viability [2]: 1.07

C[C@@H]1O[C@@H](O[C@H]2[C@H](Oc3cc(O)c(C(=O)CCc4ccc(O)cc4)c(O)c3)O[C@H](CO)[C@@H](O)[C@@H]2O)[C@H](O)[C@H](O)[C@H]1O
cell viability [1]: 0.817
cell viability [2]: 0.845

O=c1cc(CO)occ1O
cell viability [1]: 1.02
cell viability [2]: 1.03

CC(C)=CCC/C(C)=C/CO
cell viability [1]: 1.03
cell viability [2]: 0.824

O=C(O)Cc1cccc(O)c1
cell viability [1]: 1.33
cell viability [2]: 1.06

Cn1cnc2c1c(=O)[nH]c(=O)n2C
cell viability [1]: 1.04
cell viability [2]: 1.06

CC(C)N1CCN(c2ccc(OCC3COC(Cn4cncn4)(c4ccc(Cl)cc4Cl)O3)cc2)CC1 (stereo not drawn)
cell viability [1]: 0.876
cell viability [2]: 0.884

CC1=CC(=O)CC(C)(C)C1(O)/C=C/C(C)=C\C(=O)O (stereo not drawn)
cell viability [1]: 0.862
cell viability [2]: 0.97

COc1c(O)c(OC)c(/C=C/c2ccc(O)cc2)c(OC)c1O
cell viability [1]: 0.929
cell viability [2]: 0.879

Cc1nnc(NS(=O)(=O)c2ccc(N)cc2)s1
cell viability [1]: 0.819
cell viability [2]: 0.846

CC(O)Cn1cnc2c1c(=O)n(C)c(=O)n2C (stereo not drawn)
cell viability [1]: 0.853
cell viability [2]: 0.862

CCCCc1ccc(O)cc1O
cell viability [1]: 0.864
cell viability [2]: 1.19

CC(=O)NCCc1c[nH]c2ccc(O)cc12
cell viability [1]: 1.06
cell viability [2]: 0.901

COc1cc2c(cc1OC)[C@H]1[C@@H](C)c3ccc(OC)c(OC)c3CN1CC2
cell viability [1]: 0.819
cell viability [2]: 0.878

CC(=O)[C@H]1CC[C@H]2[C@@H]3CCC4=CC(=O)CC[C@]4(C)[C@H]3CC[C@]12C
cell viability [1]: 1.21
cell viability [2]: 1.07

Nc1nc(=O)c2c([nH]1)NC[C@@H](CNc1ccc(C(=O)N[C@@H](CCC(=O)O)C(=O)O)cc1)N2C=O
cell viability [1]: 1.16 and 0.966
cell viability [2]: 0.943 and 1.04
